The values below come from the supplement of paper PMC8104966.

Counter-ions that a name gives are not always drawn. ± gives the standard deviation of the averaged measurements. The list shows a part of the results. Single values are uncertain here, since repeats match poorly.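 U2OS cells carrying ACE2 were mixed with U2OS cells carrying full-length spike, and fusion was scored by imaging as the share of nuclei showing both cell types' fluorescent markers. A compound counts as an inhibitory hit when it is non-toxic and its fusion z-score falls below -3, meaning more than three standard deviations below the plate's DMSO wells.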

This assay relates to U2OS ACE2 x SARS-CoV-2 spike co-culture. Nature of the assay: cell-cell fusion (fraction fused) z-score vs plate DMSO control; higher = more fusion. As to conditions: 30 µM; 5 h; toxicity class: non-toxic, passed QC.
`CO[C@H]1C[C@@H]2CC[C@@H](C)[C@@](O)(O2)C(=O)C(=O)N2CCCC[C@H]2C(=O)O[C@H]([C@@H](C)C[C@@H]2CC[C@@H](OCCO)[C@H](OC)C2)CC(=O)[C@H](C)/C=C(\C)[C@H](O)[C@@H](OC)C(=O)[C@H](C)C[C@H](C)/C=C/C=C/C=C/1C` [Everolimus (RAD001)]: the “cell-cell fusion (z-score)” value was -3.72 ± 8.1.
Under `NS(=O)(=O)c1cc(C(=O)O)c(NCc2ccco2)cc1Cl` stands inactive: 0.661.
The value for `CC(C)(O)CC(=O)NCCn1ccc2ncnc(Nc3ccc(Oc4cccc(C(F)(F)F)c4)c(Cl)c3)c21` was active: -15; that for `CC[C@H]1CN2CCc3cc(OC)c(OC)cc3[C@@H]2C[C@@H]1C[C@H]1NCCc2cc(OC)c(OC)cc21.Cl.Cl` [Emetine dihydrochloride hydrate] was inactive: -1.09; that for `NCCCC[C@H](N[C@@H](CCc1ccccc1)C(=O)O)C(=O)N1CCC[C@H]1C(=O)O.O.O` [Lisinopril dihydrate] was inactive: 1.74.
Under `N#CC(c1ccc(Cl)cc1)c1c(Cl)cc(-n2ncc(=O)[nH]c2=O)cc1Cl` (stereo not drawn) stands inactive: 0.333; under `CC(=O)c1ccc2c(c1)N(CCCN1CCC(CCO)CC1)c1ccccc1S2`, inactive: 3.83.
For the molecule `COc1ccc(CNC(=O)Nc2ncc([N+](=O)[O-])s2)cc1`, the “cell-cell fusion (z-score)” value was inactive: 0.848.
The value for `CO/N=C1\CN(c2nc3c(cc2F)c(=O)c(C(=O)O)cn3C2CC2)CC1CN.CS(=O)(=O)O` (stereo not drawn) [Gemifloxacin mesylate] was inactive: 0.874; that for `Clc1ccc(C(Cn2ccnc2)OCc2ccsc2Cl)c(Cl)c1` (stereo not drawn) [Vagistat] was inactive: 1.8.
The value for `Cc1cccc(Nc2ccncc2S(=O)(=O)NC(=O)NC(C)C)c1` [Torasemide] was inactive: 2.09; that for `Cl.c1ccc(C2CC2)c(OCC2=NCCN2)c1` [Cirazoline hydrochloride] was inactive: 3.89; that for `CN(C)[C@@H]1C(O)=C(C(N)=O)C(=O)[C@@]2(O)C(O)=C3C(=O)c4c(O)cccc4[C@@](C)(O)[C@H]3C[C@@H]12` [Tetracycline] was inactive: 1.25.
Under `CC(=O)Nc1ccc(OC[C@](C)(O)C(=O)Nc2ccc([N+](=O)[O-])c(C(F)(F)F)c2)cc1` [Andarine (GTX-007)] stands inactive: 1.34; under `Cn1cc(C2=C(c3cn(C4CCN(Cc5ccccn5)CC4)c4ccccc34)C(=O)NC2=O)c2ccccc21`, inactive: 2.27.
Consider `CN(C)/N=N/c1[nH]cnc1C(N)=O`, for which the “cell-cell fusion (z-score)” value was inactive: 0.456.
For `NC(CO)(CO)CO.O=C(c1ccccc1)c1ccc2n1CCC2C(=O)O` (stereo not drawn) [Ketorolac tromethamine salt], the “cell-cell fusion (z-score)” value was inactive: 0.297.
Under `O=C(O)/C=C/C=C/c1ccccc1` stands inactive: 2.62.
Under `Br.CCCN(CCC)C1CCc2ccc(O)cc2C1` (racemic) [(±)-7-Hydroxy-DPAT hydrobromide] stands inactive: 0.623.
Under `CN[C@@H]1[C@@H](O)[C@@H](O[C@@H]2[C@@H](O)[C@H](O[C@H]3O[C@H]([C@@H](C)NC)CC[C@H]3N)[C@@H](N)C[C@H]2N)OC[C@]1(C)O.O=S(=O)(O)O` [Gentamycin sulfate] stands inactive: 2.65.
Take `O=S(=O)(c1cccc2cnccc12)N1CCCNCC1`: the “cell-cell fusion (z-score)” value was inactive: 3.69.
The value for `N[C@@H](Cc1cc(I)c(Oc2cc(I)c(O)c(I)c2)c(I)c1)C(=O)O` [L-Thyroxine] was inactive: 3.34; that for `C/C=C(\C)C(=O)O[C@H]1C[C@@H](OC(C)=O)[C@@]2(C(=O)OC)CO[C@@H]3C2[C@]12CO[C@](O)(C(=O)OC)[C@H]2[C@](C)(C12O[C@@]1(C)[C@H]1C[C@@H]2OC2OC=C[C@@]21O)[C@@H]3O` (stereo partly drawn) was inactive: 1.3.
With `NC(CO)(CO)CO` [Trometamol], the “cell-cell fusion (z-score)” value was inactive: 4.19.
The value for `NC(CO)(CO)CO` was inactive: 2.71.
The value for `CC(=O)c1c(O)c(C)c(O)c(Cc2c(O)c3c(c(C(=O)/C=C/c4ccccc4)c2O)OC(C)(C)C=C3)c1O` [Rottlerin] was inactive: 2.18; that for `CC[C@H](C)[C@H](N)C(=O)O` [isoleucine] was inactive: 2.47; that for `O=C1CC(c2ccccc2)Oc2ccccc21` (stereo not drawn) was inactive: 2.08.
Under `CCN(CC)CCCC(C)Nc1ccnc2cc(Cl)ccc12.O=P(O)(O)O.O=P(O)(O)O` (stereo not drawn) [Chloroquine diphosphate] stands inactive: 0.987; under `CC(=O)O[C@H]1C(=O)[C@@]2(C)C([C@H](OC(=O)c3ccccc3)[C@]3(O)C[C@H](OC(=O)[C@H](O)[C@@H](NC(=O)c4ccccc4)c4ccccc4)C(C)=C1C3(C)C)[C@]1(OC(C)=O)CO[C@@H]1C[C@@H]2O` (stereo partly drawn), inactive: 1.61.
Consider `Cl.NCC(CC(=O)O)c1ccc(Cl)cc1` (racemic), for which the “cell-cell fusion (z-score)” value was inactive: 3.71.
On to `CN1C(=O)C(O)N=C(c2ccccc2)c2cc(Cl)ccc21` (stereo not drawn), for which the “cell-cell fusion (z-score)” value was inactive: 1.14.
As for `O[C@H]1[C@H](O)[C@@H](O)C2OC[C@H]1O2`, the “cell-cell fusion (z-score)” value was inactive: 2.55.
Under `O=c1cc(-c2ccccc2)oc2c(O)c(O)ccc12` [7,8-Dihydroxyflavone hydrate] stands inactive: 1.34; under `NC[C@@H]1CC[C@@H](N)[C@@H](O[C@H]2[C@H](O)[C@@H](O[C@H]3O[C@H](CO)[C@@H](O)[C@H](N)[C@H]3O)[C@H](N)C[C@@H]2N)O1`, inactive: 1.59; under `COc1ccccc1OCCNCC(O)COc1cccc2[nH]c3ccccc3c12` (stereo not drawn), inactive: 2.34.
The value for `COc1cc(O)cc(O)c1C(=O)c1ccccc1` was inactive: 2.99; that for `O=C(O)C(O)C(O)C(=O)O.O=C(c1ccc(F)cc1)C1CCN(CCn2c(=O)[nH]c3ccccc3c2=O)CC1` [Ketanserin tartrate] was inactive: 0.119; that for `c1ccc(/N=N\c2ccccc2)cc1` was inactive: 2.54.
In the case of `Cc1ncc(CNC(=O)N(CCCl)N=O)c(N)n1` [Nimustine hydrochloride], the “cell-cell fusion (z-score)” value was inactive: 1.66.
As for `Cc1ncc(CNC(=O)N(CCCl)N=O)c(N)n1`, the “cell-cell fusion (z-score)” value was inactive: 1.41.
Under `CC[P](CC)(CC)=[Au][S][C@@H]1O[C@H](COC(C)=O)[C@@H](OC(C)=O)[C@H](OC(C)=O)[C@H]1OC(C)=O` [Auranofin] stands inactive: 1.03.
Under `CC1(C)CC[C@]2(C)CC[C@]3(C)C(=CCC4[C@@]5(C)CC[C@H](O)C(C)(C)C5CC[C@]43C)C2C1` (stereo partly drawn) [beta-AMYRIN] stands inactive: 1.35.
Under `C#CCCCCCCCCCCCC(O)CC(O)COC(C)=O.C=CCCCCCCCCCCCC(O)CC(O)COC(C)=O` (stereo not drawn) stands inactive: 0.82; under `CS(=O)(=O)O.Cn1cc(C(F)(F)F)nc1-c1ccc(OCC(O)CNCCOc2ccc(O)c(C(N)=O)c2)cc1` (stereo not drawn), inactive: 0.916.
On to `Cc1c(OCC(F)(F)F)ccnc1CS(=O)c1nc2ccccc2[nH]1` (stereo not drawn) [Lansoprazole], for which the “cell-cell fusion (z-score)” value was inactive: 0.392.
Under `Cl.O=C1c2cccc3c2[C@H](CCC3)CN1[C@@H]1CN2CCC1CC2` [Palonosetron hydrochloride] stands inactive: 0.761; under `CN[C@H]1CC[C@@H](c2ccc(Cl)c(Cl)c2)c2ccccc21.Cl` [Sertraline hydrochloride], inactive: -1.3; under `CCO.C[C@H]1c2cccc(O)c2C(O)=C2C(=O)[C@]3(O)C(O)=C(C(N)=O)C(=O)[C@@H](N(C)C)[C@@H]3[C@@H](O)[C@@H]21.C[C@H]1c2cccc(O)c2C(O)=C2C(=O)[C@]3(O)C(O)=C(C(N)=O)C(=O)[C@@H](N(C)C)[C@@H]3[C@@H](O)[C@@H]21.Cl.Cl.O` [Doxycycline hyclate], inactive: 1.86.
Under `CC[C@]12CCCN3CCc4c(n(c5ccccc45)[C@](O)(C(=O)OC)C1)[C@@H]32` stands inactive: 0.666; under `CC(O)(CS(=O)(=O)c1ccc(F)cc1)C(=O)Nc1ccc(C#N)c(C(F)(F)F)c1` (stereo not drawn), inactive: 1.32.
On to `CC(O)(CS(=O)(=O)c1ccc(F)cc1)C(=O)Nc1ccc(C#N)c(C(F)(F)F)c1` (stereo not drawn) [Bicalutamide (CDX)], for which the “cell-cell fusion (z-score)” value was inactive: 2.03.
With `C[N+](C)(C)CCCCCCCCCC[N+](C)(C)C.[Br-].[Br-]` [Decamethonium dibromide], the “cell-cell fusion (z-score)” value is inactive: 2.76.
In the case of `C[N+](C)(C)CCCCCCCCCC[N+](C)(C)C.[Br-].[Br-]`, the “cell-cell fusion (z-score)” value is inactive: 2.44.
Under `Oc1c(Cl)cc(Cl)c(Cl)c1Cc1c(O)c(Cl)cc(Cl)c1Cl` stands inactive: 1.09.
Under `CC1(C)C(=O)C=C[C@@]2(C)C1CC(=O)[C@@]1(C)C3=CC(=O)O[C@@H](c4ccoc4)[C@]3(C)CCC12` (stereo partly drawn) stands inactive: 3.11; under `CC(=O)[N-]S(=O)(=O)c1ccc(N)cc1.O.[Na+]` [Sulfacetamide sodium salt hydrate], inactive: 1.69.
Under `CN(C)C(=O)Oc1cc(OC(=O)N(C)C)cc(C(O)CNC(C)(C)C)c1.Cl` (stereo not drawn) stands inactive: 1.41; under `CC(=O)NCCc1c[nH]c2ccc(O)cc12` [N-Acetyl-5-hydroxytryptamine], inactive: 1.58; under `CC(C)(Sc1cc(C(C)(C)C)c(O)c(C(C)(C)C)c1)Sc1cc(C(C)(C)C)c(O)c(C(C)(C)C)c1`, inactive: 0.161.
For the molecule `COC(=O)C1[C@H]2C[C@H]3c4[nH]c5ccccc5c4CCN3C[C@@H]2CC[C@@H]1O.Cl` (stereo partly drawn), the “cell-cell fusion (z-score)” value is inactive: 1.7.
Under `N#Cc1ccc2[nH]c(O)c(-c3ccc(CN4CCOCC4)cn3)c2c1` stands inactive: 2.72; under `N=C(N)NS(=O)(=O)c1ccc(N)cc1`, inactive: 2.35.
